# Measured values from PubChem BioAssay AID504834 (National Center for Advancing Translational Sciences (NCATS), 2011).
# About 22,000 (6.9%) of roughly 320,000 compounds were called active. This list was built around the results that the source calls inconclusive (neither active nor inactive); the mix of calls is not that of the screen. The call rests on the fitted dose curve; in most records, active means well fitted inhibition curve with a large enough effect; inconclusive means small, poorly fitted or top-dose-only effect, or another doubt; inactive means no such curve, though single readings can be large or run the other way. A potency beside an inconclusive call is a rough fit, not a confirmed value.
# Test: Primary qHTS for delayed death inhibitors of the malarial parasite plastid, 96 hour incubation
# Conditions: P. falciparum luciferase reporter growth; series mostly up to 28.7 µM
# Method in brief: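 Delayed-death screen, second-generation endpoint: infected erythrocytes, 2% hematocrit, 0.05% parasitemia final; 96 hours at 37 C, 5% CO2; luciferase detection reagent; luminescence decrease equals reduced growth.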
# Potency means the concentration at half of the fitted maximal effect.
row,SMILES,Potency
1,CCOC(=O)/C(=N/Nc1ccccc1)N1CCCc2ccccc21,"inconclusive: 0.104 µM [inhibitor, full curve, poor fit]"
2,Cc1nn(-c2c(Cl)cc(Cl)cc2Cl)c(=O)c2ccccc12,active: 13.1 µM
3,C/C(CCc1ccccc1)=N\NC(=O)C(=O)Nc1cccc(Cl)c1,"inconclusive: 18.5 µM [inhibitor, single point]"
4,CCCNC(=O)c1ccc(N2CCC3(CC2)CC(c2ccccc2)=NO3)c(NC(=O)c2cccc(C)c2)c1,active: 1.85 µM
5,COC(=O)c1sc2[nH]c(=S)n(N)c(=O)c2c1C,"inconclusive: 13.1 µM [inhibitor, partial curve, poor fit]"
6,CCNc1nc(NCC)n2c(SCC(=O)Nc3cc(OC)ccc3OC)nnc2n1,active: 8.28 µM
7,O=C(N/N=C\c1cccs1)c1sccc1-n1cccc1,active: 13.1 µM
8,O=C(CSC(=S)N1CCCC1)Nc1cc2c(cc1Br)OCCO2,"inconclusive: 11.7 µM [inhibitor, single point]"
9,CC12CCC(=O)N1C(C(=O)OCC(=O)Nc1cc(S(=O)(=O)N3CCCCC3)ccc1Cl)CS2 (centres undefined),"inconclusive: 0.117 µM [inhibitor, full curve, poor fit]"
10,COc1cc(/C=C(/C#N)C(=O)NCCc2c[nH]c3ccccc23)ccc1OCc1ccccc1F,"inconclusive: 9.28 µM [inhibitor, partial curve]"
11,Cc1ccc2c(c1)sc1nc(=O)ccn12,"inconclusive: 2.33 µM [inhibitor, full curve, poor fit]"
12,CC1CC(OC(=O)C2CCN(S(=O)(=O)c3ccc(F)cc3)CC2)C(=O)O1 (centres undefined),inactive
13,CCCN(CC(=O)Nc1ccccc1C)C(=O)CCCc1c[nH]c2ccccc12,"inconclusive: 18.5 µM [inhibitor, single point]"
14,Cc1cc(C(=O)Nc2ccc([N+](=O)[O-])cn2)cs1,inactive
15,COc1ccc2c(c1)c(=O)oc1c(C)c(OC(C)C(=O)N[C@@H](Cc3c[nH]c4ccc(O)cc34)C(=O)O)ccc12 (some centres undefined),"inconclusive: 11.7 µM [inhibitor, single point]"
16,Cc1ccc(S(=O)(=O)Oc2cccc(/C=N/Nc3ccc(C(=O)O)cc3)c2)cc1,inactive
17,CC(C)(C)NC(=O)C1N(c2cccnc2)C(=O)C2C(C(=O)Nc3ccccc3)C3(C)C=CC21O3 (centres undefined),"inconclusive: 18.5 µM [inhibitor, single point]"
18,COC(=O)C(Cc1ccccc1)NC(=O)CC(C)CC(=O)Nc1ccc(C)cc1 (centres undefined),"inconclusive: 11.7 µM [inhibitor, single point]"
19,O=C(CN1C(=O)CCC1=O)Nc1nc(-c2ccc(Oc3ccccc3)cc2)cs1,inactive
20,COc1ccc(NC(=S)NCCN2CCC(C)CC2)cc1Cl,"inconclusive: 1.85 µM [inhibitor, full curve, poor fit]"
21,Cc1ccc(C)c(NC(=O)Cn2nc(-c3ccccc3)nc2-c2ccccc2)c1,"inconclusive: 1.47 µM [inhibitor, partial curve]"
22,CCOc1cc(S(=O)(=O)NCc2ccccn2)ccc1Cl,active: 8.28 µM
23,COc1c(O)cc2oc(-c3ccc(O)c(O)c3)cc(=O)c2c1O,inactive
24,CN(C)S(=O)(=O)c1ccc(C(=O)OCC(=O)c2ccc(OC(F)F)cc2OC(F)F)cc1,inactive
25,CCN(c1ccccc1)S(=O)(=O)c1ccc(Cl)c(NC(=O)COC(=O)c2cccc(OC)c2O)c1,inactive

# In another format: entries from further up.
row | SMILES | Potency
4 | CCCNC(=O)c1ccc(N2CCC3(CC2)CC(c2ccccc2)=NO3)c(NC(=O)c2cccc(C)c2)c1 | active: 1.85 µM
7 | O=C(N/N=C\c1cccs1)c1sccc1-n1cccc1 | active: 13.1 µM
16 | Cc1ccc(S(=O)(=O)Oc2cccc(/C=N/Nc3ccc(C(=O)O)cc3)c2)cc1 | inactive
21 | Cc1ccc(C)c(NC(=O)Cn2nc(-c3ccccc3)nc2-c2ccccc2)c1 | inconclusive: 1.47 µM [inhibitor, partial curve]
25 | CCN(c1ccccc1)S(=O)(=O)c1ccc(Cl)c(NC(=O)COC(=O)c2cccc(OC)c2O)c1 | inactive

# (listing goes on)

row,SMILES,Potency
1,CCN(C(=O)Nc1ccccc1)c1ccccc1,"inconclusive: 13.1 µM [inhibitor, partial curve]"
2,Brc1ccc(-c2ncc3ccccn23)cc1,inactive
3,CCN(CC)C(=O)COc1coc(CN2CCN(c3ccccc3)CC2)cc1=O,active: 10.4 µM
4,Cc1cc(C)c(S(=O)(=O)N2CCCCC2CCNC(=O)C(=O)NCC2CCCO2)c(C)c1 (centres undefined),"inconclusive: 10.4 µM [inhibitor, single point]"
5,CCC(=O)Nc1nc(-c2ccc3c(c2)CC(C)N3S(C)(=O)=O)cs1 (centres undefined),inactive
6,Cc1ccc(N2CCN(S(=O)(=O)c3c(C)noc3C)CC2C)cc1 (centres undefined),inactive
7,CCOC(=O)Cc1nnc(Nc2ccc(C(=O)NC)cc2)c2ccccc12,inactive
8,O=C(CCSCc1ccccc1Cl)NCc1cccs1,"inconclusive: 0.828 µM [inhibitor, full curve, poor fit]"
9,Nc1c(C(=O)NCc2ccco2)sc2nc3c(cc12)C(=O)CCC3,"inconclusive: 14.7 µM [inhibitor, partial curve, poor fit]"
10,COC(=O)c1ccc(N=NNc2ccccc2)cc1,"inconclusive: 11.7 µM [inhibitor, single point]"
11,CC(OC(=O)Cn1nnc2ccccc21)C(=O)NC1CCCC1 (centres undefined),"inconclusive: 4.15 µM [inhibitor, partial curve]"
12,Cc1ccc(N(C(=O)c2ccc(S(=O)(=O)N3CCCC3)cc2)C2C=CS(=O)(=O)C2)cc1 (centres undefined),inactive
13,CCn1ncc(C2=NOC(C(=O)Nc3c(C)n(C)n(-c4ccccc4)c3=O)C2)c1C (centres undefined),"inconclusive: 10.4 µM [inhibitor, partial curve]"
14,CN(CC(=O)NCc1cccs1)S(=O)(=O)c1cccc2cccnc12,"inconclusive: 10.4 µM [inhibitor, single point]"
15,COc1ccccc1/C=C/C(=O)Nc1ccc(N2CCOCC2)cc1,inactive
16,CCOC(=O)c1sc(NC(=S)NC(=O)C2CCCC2)cc1C,active: 9.28 µM
17,CCNc1cc(O)ccc1C,"inconclusive: 3.7 µM [inhibitor, single point]"
18,COc1ccc(C(=O)NC2=NCCS2)cc1,inactive
19,CC1CCc2c(sc(Nc3nc4c(F)cccc4s3)c2C(N)=O)C1 (centres undefined),"inconclusive: 5.86 µM [inhibitor, single point]"
20,Cc1[nH]c2ccc(C(=O)N3CCN(c4ccccc4Cl)CC3)cc2c1C,inactive
21,COc1ccc(C(=O)NNC(=O)CN2CCC(n3nnc4cc(C(F)(F)F)ccc43)CC2)cc1,inactive
22,COC(=O)C1CCN(C(=O)C2CCN(C(=O)[C@H](C)NS(=O)(=O)c3ccc(C)cc3)CC2)CC1,active: 11.7 µM
23,CCN(CC)CCN1C(=O)C(=O)/C(=C(/O)c2ccccc2)C1c1ccccc1F (centres undefined),"inconclusive: 1.31 µM [inhibitor, full curve, poor fit]"
24,O=C(c1ccc2c3c(cccc13)CC2)C1CCCN(C(=O)c2cccnc2)C1 (centres undefined),"inconclusive: 11.7 µM [inhibitor, single point]"
25,COc1ccccc1OCC(=O)NCc1cccs1,inactive

row,SMILES,Potency
1,CCC(C)(C)C1CCC2(CC1)NC(=O)N(CC(=O)N1CCN(C(=O)c3ccco3)CC1)C2=O (centres undefined),inactive
2,Cc1ccc(-c2ccc(/C=N\NC(=O)C3C(=O)NCC3c3ccccc3)o2)cc1Cl (centres undefined),"inconclusive: 18.5 µM [inhibitor, single point]"
3,CCc1cccc(NC(=O)CCc2nc3sc4c(c3c(=O)[nH]2)CCCC4)c1,"inconclusive: 11.7 µM [inhibitor, single point]"
4,Nc1c(Cl)ncnc1N1CCCC1,"inconclusive: 20.8 µM [inhibitor, partial curve, poor fit]"
5,COC(=O)c1cccc(CSc2nc3ccccc3[nH]2)c1,"inconclusive: 16.5 µM [inhibitor, single point]"
6,COc1ccc(S(=O)(=O)N2CCNC(=O)CC2)cc1,inactive
7,CC(C)NC(=O)C1(c2ccccc2)CCOCC1,"inconclusive: 1.47 µM [inhibitor, full curve]"
8,Cc1nn(Cc2ccc(C(=O)N3CCOCC3)o2)c(C)c1Br,inactive
9,Cc1ccc(NC2CCCN(C(=O)CSc3ccncc3)C2)cc1C (centres undefined),active: 13.1 µM
10,COc1ccccc1-n1cc2c([N+](=O)[O-])cc([N+](=O)[O-])cc2n1,inactive
11,CC1CN(S(=O)(=O)c2cccc(C(=O)OCCOc3ccccc3)c2)CC(C)O1 (centres undefined),"inconclusive: 18.5 µM [inhibitor, single point]"
12,CC(=O)Nc1ccc(S(=O)(=O)NCCc2ccccn2)cc1,inactive
13,CCCCN(C(=O)c1cc(OC)c(OC)c(OC)c1)C1=CC2CCC(C1)N2C (centres undefined),"inconclusive: 4.65 µM [inhibitor, partial curve]"
14,O=C(NNC(=O)c1ccc(NC(=O)c2ccccc2)cc1)c1ccccc1,"inconclusive: 10.4 µM [inhibitor, single point]"
15,COc1ccc(C(C(=O)NC2CCCCC2)N(Cc2ccco2)C(=O)c2snc(C(N)=O)c2N)cc1 (centres undefined),"inconclusive: 13.1 µM [inhibitor, partial curve]"
16,Cc1cc(C)nc(Nc2ccc(Br)cc2C(=O)O)n1,"inconclusive: 18.5 µM [inhibitor, single point]"
17,S=C(NCc1ccc(Cl)cc1)NC12CC3CC(CC(C3)C1)C2,active: 11.7 µM
18,Oc1[nH]c2ccc(Br)cc2c1N=NC(=S)N1CCOCC1,active: 0.415 µM
19,CCC(=O)NCCc1nc2ccccc2n1Cc1ccccc1,"inconclusive: 10.4 µM [inhibitor, single point]"
20,CCOc1ccc(NC(=O)C2CCC(CNc3c(N4CCCCC4)c(=O)c3=O)CC2)cc1 (centres undefined),active: 5.86 µM
21,COc1cccc(CN(C)C(=O)c2ccc(S(=O)(=O)N3CCCC3)cc2)c1OC,"inconclusive: 0.0522 µM [inhibitor, full curve, poor fit]"
22,Cc1cccc(/C=N\Nc2nnc(-c3ccccc3)c(=O)[nH]2)c1,inactive
23,O=C(N/N=C/c1cccnc1)c1cccc(Br)c1,active: 6.57 µM
24,O=C(NCc1ccncc1)c1ccc2nc(Cc3ccccc3F)oc2c1,"inconclusive: 18.5 µM [inhibitor, single point]"
